Assay results: paper PMC10561432
These are yes or no findings as the source states them, for the method shown. Binding seen in cells or lysates may run through a third protein. Some binding calls cover weakened binding; strength is not graded here. Tags and fused reporters may be left off the sequences shown.

Target: T1, HA-Stat1 (signal transducer and activator of transcription 1) (UniProt P42225)
T1 sequence: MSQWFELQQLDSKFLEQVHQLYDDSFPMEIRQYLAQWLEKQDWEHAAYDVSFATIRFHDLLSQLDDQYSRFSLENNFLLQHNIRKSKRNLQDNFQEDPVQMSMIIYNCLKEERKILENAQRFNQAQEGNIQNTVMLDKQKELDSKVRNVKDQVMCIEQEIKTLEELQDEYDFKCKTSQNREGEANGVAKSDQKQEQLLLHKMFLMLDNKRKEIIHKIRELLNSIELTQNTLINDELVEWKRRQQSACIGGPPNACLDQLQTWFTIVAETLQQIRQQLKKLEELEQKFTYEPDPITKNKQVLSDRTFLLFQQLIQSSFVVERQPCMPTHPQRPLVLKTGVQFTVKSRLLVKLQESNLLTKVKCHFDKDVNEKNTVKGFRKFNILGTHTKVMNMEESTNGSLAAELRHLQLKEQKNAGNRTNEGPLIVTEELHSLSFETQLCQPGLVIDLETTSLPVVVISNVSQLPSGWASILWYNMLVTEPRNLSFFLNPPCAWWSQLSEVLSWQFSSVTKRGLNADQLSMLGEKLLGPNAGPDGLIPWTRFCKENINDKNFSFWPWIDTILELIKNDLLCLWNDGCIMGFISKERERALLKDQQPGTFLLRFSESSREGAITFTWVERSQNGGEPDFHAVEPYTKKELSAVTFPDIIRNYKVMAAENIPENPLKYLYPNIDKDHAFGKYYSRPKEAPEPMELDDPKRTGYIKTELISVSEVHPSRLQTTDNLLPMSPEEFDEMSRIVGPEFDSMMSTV
Assay: co-IP; HEK293T cells co-transfected with Flag-GADD45A and HA-Stat1 plasmids; lysate precleared with protein A/G agarose, anti-GADD45A or anti-Stat1 antibody at 4 °C overnight, protein A/G agarose 2 h, washed with cold PBS three times, western blotting

B1: Flag-GADD45A (growth arrest and DNA damage-inducible A) (protein, UniProt P48316 1-165)
chain: MTLEEFSAAEQKTERMDTVGDALEEVLSKARSQRTITVGVYEAAKLLNVDPDNVVLCLLAADEDDDRDVALQIHFTLIRAFCCENDINILRVSNPGRLAELLLLENDAGPAESGGAAQTPDLHCVLVTNPHSSQWKDPALSQLICFCRESRYMDQWVPVINLPER
binding: binds
